Measurements taken from PubChem BioAssay AID504444 (National Center for Advancing Translational Sciences (NCATS), 2011).
Out of some 360,000 compounds screened, about 7,500 (2.1%) were called active. Inconclusive means that the source gave no clear call. Such entries were picked first, then a sample of the others. The call rests on the fitted dose curve; in most records, active means well fitted inhibition curve with a large enough effect; inconclusive means small, poorly fitted or top-dose-only effect, or effect the other way; inactive means flat fitted curve, though single readings scatter. A potency beside an inconclusive call is a rough fit, not a confirmed value.

test: Nrf2 qHTS screen for inhibitors; settings: A549 ARE-Fluc reporter, luciferase luminescence, 18-24 h; series mostly up to 46 µM; further: nearly all actives have a fitted effect of over 60% in size
In short: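 Nrf2 activity is the BugLite luminescence, read 15 min after reagent at room temperature, following CellTiter-Fluor cytotoxicity readout (30 min, 37C). Compound titrations were applied for 18-24 h to 5000 A549 ARE_Fluc cells/well in 5% FBS OPTI-MEM.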
Potency means the concentration at half of the fitted maximal effect.

| SMILES | Potency |
| --- | --- |
| O=C(Nc1ccccc1Cl)N1CCCN(c2nc(-c3ccccc3)ns2)CC1 | inconclusive: 25.9 µM [falling, single point] |
| O=S1(=O)CC=C(CSC(=S)NC2CCS(=O)(=O)C2)C1 (stereo not drawn) | inconclusive: 29.1 µM [falling, single point] |
| COC(=O)c1cccc(NC(=O)c2onc3c2CCCC3)c1 | inconclusive: 0.259 µM [activator, full curve] |
| CCCC(=O)NC(=S)Nc1ccc(NC(=O)c2cccs2)cc1 | inactive |
| O=C(O)c1ccc(N/N=C/c2c[nH]c3ccccc23)cc1 | inconclusive: 32.6 µM [falling, partial curve, poor fit] |
| CCCNC(=O)c1ccc(COc2ccc(C(C)(C)C)cc2)o1 | inconclusive: 9.2 µM [activator, partial curve] |
| CCOC(=O)c1ccc(NC(=O)C2CCCN(c3cnccn3)C2)cc1 (stereo not drawn) | inconclusive: 2.91 µM [activator, partial curve, poor fit] |
| O=C(O)c1ccc(Cl)c(S(=O)(=O)Nc2ccccc2C(=O)Nc2ccc(Cl)cc2)c1 | inconclusive: 29.1 µM [activator, single point] |
| Oc1ccc(C2=Nn3c(nnc3-c3ccco3)SC2)cc1O | inconclusive: 23.1 µM [activator, single point] |
| Cc1ccc(OCC(O)CN2CCN(c3ccccn3)CC2)c(C)c1 (stereo not drawn) | inconclusive: 4.61 µM [falling, partial curve, poor fit] |
| Cc1cccc(C)c1N1C(=O)CC(N2CCN(S(=O)(=O)c3ccccc3F)CC2)C1=O (stereo not drawn) | inconclusive: 11.6 µM [activator, partial curve, poor fit] |
| O=C(Nc1ccc(Cl)cc1)Nc1cccc2nsnc12 | inconclusive: 32.6 µM [falling, single point] |
| COc1ncccc1-c1nnn(-c2ccc(Cl)c(Cl)c2)n1 | inconclusive: 20.6 µM [activator, partial curve] |
| CCCc1nc2ccc(NC(=O)NCCC(=O)OCC)cc2c(=O)n1Cc1ccc(Cl)cc1 | inactive |
| COc1ccc(S(=O)(=O)NNC(=O)c2ccc([N+](=O)[O-])cc2)cc1 | inconclusive: 18.4 µM [activator, single point] |
| COc1ccc(/C=C2\CCCC3C2=NN(C(=O)CSc2ncn[nH]2)C3c2ccc(OC)cc2)cc1 (stereo not drawn) | inconclusive: 23.1 µM [falling, single point] |
| COc1cc2c(cc1OC)C(C)N(S(=O)(=O)c1cnc(Cl)c(Cl)c1)CC2 (stereo not drawn) | inconclusive: 20.6 µM [activator, single point] |
| N#CC1(C#N)CC(C=O)=C(N)C1(C#N)CC(=O)C12CC3CC(CC(C3)C1)C2 (stereo not drawn) | inconclusive: 23.1 µM [falling, partial curve, poor fit] |
| COc1ccc2c(c1)c(=O)c(C(=O)c1ccc(C)cc1)cn2CC(=O)Nc1ccc(F)cc1 | inconclusive: 29.1 µM [falling, single point] |
| Fc1cccc2sc(Nc3nnc(-c4ccccc4)o3)nc12 | inconclusive: 29.1 µM [falling, single point] |
| Cc1cc(C)cc(OC(C)C(=O)Nc2nc3c(s2)CCCC3)c1 (stereo not drawn) | inconclusive: 29.1 µM [falling, single point] |

| SMILES | Potency |
| --- | --- |
| O=C(COc1ccc2cc(Br)ccc2c1)N1CCOCC1 | inconclusive: 32.6 µM [falling, single point] |
| NC(=O)CC(NC(=O)Cc1ccc(Br)cc1)c1ccc(NCc2cc(F)ccc2F)c([N+](=O)[O-])c1 (stereo not drawn) | inconclusive: 23.1 µM [falling, single point] |
| COc1cccc(OCCn2cc(C(C)=O)c3ccccc32)c1 | inconclusive: 11.6 µM [falling, partial curve, poor fit] |
| COc1ccc(NC(=O)c2ccco2)cc1NC(=O)c1ccc(OC(C)C)cc1 | inactive |
| CN(C)CCNC(=O)C(C(=O)c1ccccc1)n1ccccc1=O (stereo not drawn) | inconclusive: 0.731 µM [falling, partial curve, poor fit] |
| COc1ccc(NC(=O)Nc2nnc(-c3ccco3)s2)cc1 | inconclusive: 16.4 µM [activator, single point] |
| COc1ccc(C(=O)c2ccc(N(C)C)cc2)c2ccccc12 | inactive |
| CC1CCN(c2nc3c(S(=O)(=O)c4cccc(Cl)c4)nnn3c3ccsc23)CC1 | inconclusive: 29.1 µM [falling, single point] |
| Cc1ccc(N2CCN(C(=O)CCS(=O)(=O)c3cc4c(cc3Cl)NC(=O)CO4)CC2)c(C)c1 | active: 25.9 µM |
| CCCc1[nH]n(-c2nc3ccccc3s2)c(=O)c1C=NCC(C)C | inconclusive: 11.6 µM [falling, partial curve, poor fit] |
| Cc1ccccc1Nc1nnc(-c2ccc(C)c(S(=O)(=O)NCC3CCCO3)c2)c2ccccc12 (stereo not drawn) | inconclusive: 16.4 µM [falling, single point] |
| COCCN(Cc1ccccc1)C(=O)c1cccc(S(=O)(=O)N2CCN(c3ccc(F)cc3)CC2)c1 | inactive |
| COCc1[nH]nc2c1C(c1c(F)cccc1Cl)C(C#N)=C(N)O2 (stereo not drawn) | inconclusive: 29.1 µM [falling, partial curve, poor fit] |
| CC(C)(C)OC(=O)N1CCC(c2c(C(=O)N3CCN(c4ncccn4)CC3)cnn2-c2ccc(F)cc2)CC1 | inconclusive: 11.6 µM [activator, partial curve, poor fit] |
| COC(=O)c1ccc(OCC(O)CN2CCc3cc(OC)c(OC)cc3C2c2ccccc2)cc1 (stereo not drawn) | inconclusive: 29.1 µM [falling, single point] |
| Nc1c(C(=O)Nc2cccc(C(=O)O)c2)sc2nc3c(cc12)CCCC3 | inconclusive: 18.4 µM [falling, single point] |
| CCN(CC(=O)Nc1c(F)cccc1F)C(=O)CNC(=O)c1ccc(Br)o1 | inactive |
| COc1nnc(-c2ccc(N3CCOCC3)c(NC(=O)c3ccccc3)c2)c2ccccc12 | inconclusive: 4.61 µM [falling, partial curve, poor fit] |
| O=C1NCCN(Cc2ccc(Cl)c(F)c2)C1CC(=O)N1CCCO1 (stereo not drawn) | inconclusive: 29.1 µM [activator, single point] |
| CSc1ccccc1C(=O)N1CCc2ccccc2C1 | inconclusive: 16.4 µM [activator, single point] |
| CCn1cc(/C=C(\NC(=O)c2ccc(OC)c(OC)c2)C(=O)NCCCn2ccnc2)c2ccccc21 | inactive |

| SMILES | Potency |
| --- | --- |
| CN(C)c1ccc(N=Nc2ccccc2C(=O)OCC(=O)Nc2ccccc2C(F)(F)F)cc1 | inconclusive: 32.6 µM [activator, partial curve, poor fit] |
| COc1ccccc1CNC(=O)CCCc1nnc2n(C)c(=O)c3sccc3n12 | inconclusive: 20.6 µM [falling, partial curve, poor fit] |
| Cc1nc2c(cc(Oc3ccc(S(=O)(=O)N4CCOCC4)cn3)c3ccsc32)s1 | inconclusive: 29.1 µM [falling, single point] |
| CC(=O)c1ccc(N2CCN(S(=O)(=O)c3ccc(-c4cnc(C5CC5)o4)cc3)CC2)cc1 | inconclusive: 18.4 µM [falling, single point] |
| COCc1nnc(NC(=O)COc2ccc3c(c2)OCO3)s1 | inconclusive: 14.6 µM [activator, partial curve] |
| O=C(OC1CCOC1=O)c1cc(S(=O)(=O)N2CCOCC2)c(Cl)cc1Cl (stereo not drawn) | inactive |
| O=c1[nH]c(=O)c2nc3ccccc3nc2[nH]1 | inactive |
| CNC(=O)NC(=O)C(C)OC(=O)c1cc2c(s1)CCCCC2 (stereo not drawn) | inconclusive: 2.91 µM [falling, partial curve] |
| Cc1[nH]n2cnnc2c(=O)c1Br | inactive |
| Fc1ccccc1N1CCN(c2nnnn2-c2ccccc2)CC1 | inconclusive: 20.6 µM [falling, single point] |
| Cc1ccc(C)n1-c1ccc(-n2cnnn2)cc1 | inactive |
| COc1ccc(C2(c3ccc(OC)cc3)NC(=O)N(CC(=O)Nc3ccccc3C)C2=O)cc1 | inconclusive: 29.1 µM [falling, single point] |
| Cc1cc(C(=O)COC(=O)c2cccnc2Cl)c(C)n1C | inconclusive: 20.6 µM [activator, partial curve] |
| COc1cc(CN2CCCC(C(=O)c3ccc(SC)cc3)C2)cc(Cl)c1O (stereo not drawn) | inconclusive: 18.4 µM [activator, partial curve, poor fit] |
| CCC1=C(c2ccc(C)cc2)S(=O)(=O)N=C1N1CCC(C(=O)NCCc2cccc(OC)c2)CC1 | inconclusive: 3.26 µM [falling, partial curve, poor fit] |
| CCOC(=O)c1sc(NC(=O)Nc2ccc(Cl)cc2)cc1C | inconclusive: 29.1 µM [falling, single point] |
| COc1ccc(OCCCn2c(C)nc3cc(C)c(C)cc32)cc1 | inconclusive: 18.4 µM [falling, partial curve, poor fit] |
| COc1ccc(NC(=O)c2cc([N+](=O)[O-])ccc2N2CCCCC2)cc1OC | inconclusive: 4.11 µM [activator, single point] |
| C[C@]12c3[nH]c4cc(-c5ccco5)ccc4c3CCN1C(=O)[C@@H](CC(=O)NCCN1CCOCC1)C[C@@H]2C(=O)N1CCOCC1 | inactive |
| Cn1cc(CCNCc2cn[nH]c2-c2ccc(-c3ccccc3)cc2)cn1 | inconclusive: 29.1 µM [activator, single point] |
| CCOc1ccccc1OCCCCCc1c(C)n[nH]c1C | inconclusive: 23.1 µM [falling, single point] |

By substructure, the entries above with a tert-butyl group.

| SMILES | Potency |
| --- | --- |
| CCCNC(=O)c1ccc(COc2ccc(C(C)(C)C)cc2)o1 | inconclusive: 9.2 µM [activator, partial curve] |
| CC(C)(C)OC(=O)N1CCC(c2c(C(=O)N3CCN(c4ncccn4)CC3)cnn2-c2ccc(F)cc2)CC1 | inconclusive: 11.6 µM [activator, partial curve, poor fit] |
